For 1 molecule, binding results are on record in patent publication US20240207457A1, “CANCER-SPECIFIC POLYPEPTIDE AND USE THEREOF” (THE CATHOLIC UNIVERSITY OF KOREA INDUSTRY-ACADEMIC …, priority 2021, published 2024).

For the experiment, the target named is T1, LGR5 protein on gastric cancer cell lines (AGS, MKN45, MKN28) (UniProt O75473).
T1 sequence (looked up): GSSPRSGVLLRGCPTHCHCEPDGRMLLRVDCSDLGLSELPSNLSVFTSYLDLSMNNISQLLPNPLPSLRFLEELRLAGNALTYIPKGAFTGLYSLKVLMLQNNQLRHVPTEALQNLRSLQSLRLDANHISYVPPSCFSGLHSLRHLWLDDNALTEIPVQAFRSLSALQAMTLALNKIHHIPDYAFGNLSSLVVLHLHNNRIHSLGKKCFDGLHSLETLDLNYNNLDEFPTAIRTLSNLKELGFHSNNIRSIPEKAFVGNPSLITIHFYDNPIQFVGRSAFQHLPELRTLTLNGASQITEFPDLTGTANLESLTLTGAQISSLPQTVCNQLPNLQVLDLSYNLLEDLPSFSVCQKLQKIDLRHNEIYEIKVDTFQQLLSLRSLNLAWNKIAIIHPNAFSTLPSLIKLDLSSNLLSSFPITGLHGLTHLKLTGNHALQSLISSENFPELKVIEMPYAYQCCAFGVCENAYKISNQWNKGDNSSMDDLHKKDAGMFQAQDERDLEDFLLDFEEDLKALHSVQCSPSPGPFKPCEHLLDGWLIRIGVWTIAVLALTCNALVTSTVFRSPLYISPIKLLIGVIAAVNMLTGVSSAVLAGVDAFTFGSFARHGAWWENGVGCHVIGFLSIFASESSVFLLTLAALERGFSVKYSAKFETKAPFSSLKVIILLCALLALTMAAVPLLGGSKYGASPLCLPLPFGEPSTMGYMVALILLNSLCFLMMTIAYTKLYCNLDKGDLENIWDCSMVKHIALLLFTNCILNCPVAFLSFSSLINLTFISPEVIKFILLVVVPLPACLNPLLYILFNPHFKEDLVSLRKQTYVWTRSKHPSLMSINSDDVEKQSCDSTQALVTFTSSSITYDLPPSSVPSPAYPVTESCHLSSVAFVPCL
In words: FITC staining of AGS, MKN45 and MKN28 cells versus CCD841 cells.

These are yes or no findings as the source states them, for the method shown. Some results given as binding are weak or reduced against the parent protein; the word gives no strength.

On to STCTRSR (peptide, not shown: large carriers, FITC bound to the phage (site not stated)) [phage No. 24 bound to FITC], for which the binding result was “binds”.
